Some results were stated once for a whole list of compounds, not compound by compound.
System: ga20ox1 promoter
Assay: Transcription (transfection) assay, pGAOP::GUS reporter in tobacco protoplasts
Format: cell-based, potato
From the text: The cauliflowermosaic virus (CaMV) 35S promoter in pBI221 (Clontech, Palo Alto, Calif.) was replaced by an enhancer fragment (−832 to −50) of the 35S promoter plus 980 bp of the ga20ox1 promoter to generate the pGAOP::β-glucuronidase (GUS) reporter construct. With this construct, the reporter GUS transcription level is augmented but its transcription may still be affected by the ga20ox1 promoter. A CaMV 35S promoter-driven luciferase (LUC) construct 35S-LUC (obtained from Dr. Takahashi, Dept. of Biological Sciences, Graduate School of Science, Univ. of Tokyo, Japan) was used as an internal control. […]
Luciferase assays were performed by injecting 100-μL luciferase substrate (Promega, Madison, Wis.) into 20 μL of extract and measuring the emitted photons for 15 seconds in a TD-20 luminometer (Turner Designs, Sunnyvale, Calif.). […] A fluorescence multiwell plate reader, Fluoroskan II (MTX labs, Vienna, Va.), was used to measure GUS activity at 365 nm (excitation) and 455 nm (emission). Each sample was measured three times for both LUC and GUS activity. Relative GUS-LUC activity was calculated by dividing the ratio of GUS activity to LUC activity from different effectors with the ratio from reporter plasmid alone. Relative activities calculated from three transfection replications were presented as a mean±SE.

B1: StBEL-05: BEL transcription factor from Solanum tuberosum, SEQ ID NO:2, 688 aa (protein, listed as Solanum tuberosum)
chain: MYYQGTSDNTNIQADHQQRHNHGNSNNNNIQTLYLMNPNNYMQGYTTSDTQQQQQLLFLNSSPAASNALCHANIQHAPLQQQHFVGVPLPAVSLHDQINHHGLLQRMWNNQDQSQQVIVPSSTGVSATSCGGITTDLASQLAFQRPIPTPQHRQQQQQQGGLSLSLSPQLQQQISFNNNISSSSPRTNNVTIRGTLDGSSSNMVLGSKYLKAAQELLDEVVNIVGKSIKGDDQKKDNSMNKESMPLASDVNTNSSGGGESSSRQKNEVAVELTTAQRQELQMKKAKLLAMLEEVEQRYRQYHHQMQIIVLSFEQVAGIGSAKSYTQLALHAISKQFRCLKDAIAEQVKATSKSLGEEEGLGGKIEGSRLKFVDHHLRQQRALQQIGMMQPNAWRPQRGLPERAVSVLRAWLFEHFLHPYPKDSDKIMLAKQTGLTRSQVSNWFINARVRLWKPMVEEMYLEEVKNQEQNSTNTSGDNKNKETNISAPNEEKHPIITSSLLQDGITTTQAEISTSTISTSPTAGASLHHAHNFSFLGSFNMDNTTTTVDHIENNAKKQRNDMHKFSPSSILSSVDMEAKARESSNKGFTNPLMAAYAMGDFGRFDPHDQQMTANFHGNNGVSLTLGLPPSENLAMPVSQQNYLSNDLGSRSEMGSHYNRMGYENIDFQSGNKRFPTQLLPDFVTGNLGT
- suppression (repression) of ga20ox1 promoter / reporter gene activity: more than 50%

B2: POTH1: KNOX transcription factor of potato, SEQ ID NO:17, 345 aa (protein, listed as Solanum tuberosum)
chain: MDDEMYGFHSTRDDYADKALMSPENLMMQTEYNNFHNYTNSSILTSNPMMFGSDDIQLSSEQTNSFSTMTLQNNDNIYQIRSGNCGGGSGSGGSSKDHNDNNNNNEDYDEDGSNVIKAKIVSHPYYPKLLNAYIDCQKVGAPAGIVNLLEEIRQQTDFRKPNATSICIGADPELDEFMETYCDILLKYKSDLSRPFDEATTFLNKIEMQLGNLCKDDGGVSSDEELSCGEADASMRSEDNELKDRLLRKFGSHLSSLKLEFSKKKKKGKLPKEARQMLLAWWDDHFRWPYPTEADKNSLAESTGLDPKQINNWFINQRKRHWKPSENMQLAVMDNLSSQFFSSDD
- suppression (repression) of ga20ox1 promoter / reporter gene activity: more than 50%

From patent US7579150B1, “Mobile RNA acts as a signal to regulate plant growth and development” (Iowa State University Research Foundation, Inc., priority 2004, dated 2009)
